Data: patent US20240383950A1, “RECOMBINANT GLYCAN BINDING PROTEINS AND ITS USE” (UNICHEM LABORATORIES LIMITED, priority 2021, published 2024)
Like-named read-outs stand apart in the source and are kept apart here.

B1: SEQ ID NO. 4: SEQ ID NO. 2 re-engineered: Serine at 1st, Glycine at 76th, Serine added at 142nd and Cysteine at 143rd position (protein)
chain: SYKITVRVYQTNPDAFFHPVEKTVWKYANGGTWTITDDQHVLTMGGSGTSGTLRFHADNGESFTATFGVHNYKRWGDIVTNLAADETGMVINQQYYSQKNREEARERQLSNYQVKNAKGRNFQIVYTEAEGNDLHANLIIGSC
B2: SEQ ID NO. 2: recombinant glycan binding protein, variant of Sclerotium Rolfsii Lectin, disclosed in Indian Patent Application 350/MUM/2009 (protein)
chain: TYKITVRVYQTNPDAFFHPVEKTVWKYANGGTWTITDDQHVLTMGGSGTSGTLRFHADNGESFTATFGVHNYKRWCDIVTNLAADETGMVINQQYYSQKNREEARERQLSNYQVKNAKGRNFQIVYTEAEGNDLHANLIIG
B3: SEQ ID NO. 3: SEQ ID NO. 2 re-engineered: Serine at 1st position, Glycine at 76th position, Cysteine added at carboxy terminal end (protein)
chain: SYKITVRVYQTNPDAFFHPVEKTVWKYANGGTWTITDDQHVLTMGGSGTSGTLRFHADNGESFTATFGVHNYKRWGDIVTNLAADETGMVINQQYYSQKNREEARERQLSNYQVKNAKGRNFQIVYTEAEGNDLHANLIIGC

Test: N terminal methionine content by Reverse Phase HPLC

| Molecule | N Terminal Methionine (%) | N Terminal Methionine (%) (listed as SEQ ID NO:2) |
| --- | --- | --- |
| B1 | 1.25% | – |
| B2 | 13.18% | more than 13% |
| B3 | 1.07% | – |
